No constants are given. Whether binding was seen depends on the method and setting. In cells and extracts the contact can be indirect. A yes stands for co-enrichment or nearness to the bait. Other partners may have been found. For part of these data: No binding means not detected with the bait.

Assay [1] addresses T1, DRC1 (mouse) (UniProt Q3USS3).
T1 sequence: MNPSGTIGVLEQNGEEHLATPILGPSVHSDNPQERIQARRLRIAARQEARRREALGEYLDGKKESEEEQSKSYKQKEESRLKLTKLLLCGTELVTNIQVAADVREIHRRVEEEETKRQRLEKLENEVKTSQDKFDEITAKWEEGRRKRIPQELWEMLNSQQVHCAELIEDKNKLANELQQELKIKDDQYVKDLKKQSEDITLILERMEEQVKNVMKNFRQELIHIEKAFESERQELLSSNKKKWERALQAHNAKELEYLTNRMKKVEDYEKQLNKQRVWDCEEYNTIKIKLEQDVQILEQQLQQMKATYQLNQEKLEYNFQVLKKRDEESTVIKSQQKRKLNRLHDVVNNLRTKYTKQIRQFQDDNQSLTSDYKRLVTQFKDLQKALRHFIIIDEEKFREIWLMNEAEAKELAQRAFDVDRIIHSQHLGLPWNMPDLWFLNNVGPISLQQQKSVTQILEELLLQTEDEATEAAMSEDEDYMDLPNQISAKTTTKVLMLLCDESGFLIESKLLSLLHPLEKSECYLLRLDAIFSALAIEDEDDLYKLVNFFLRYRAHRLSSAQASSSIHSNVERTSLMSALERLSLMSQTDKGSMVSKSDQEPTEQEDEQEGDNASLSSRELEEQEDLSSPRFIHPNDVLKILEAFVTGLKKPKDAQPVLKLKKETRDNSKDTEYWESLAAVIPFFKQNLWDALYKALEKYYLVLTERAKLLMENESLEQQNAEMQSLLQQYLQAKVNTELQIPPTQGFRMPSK
Nature of the assay: affinity purification with mass spectrometry; IP-MS for DRC2 and DRC1; no further conditions told.

Assay [2] addresses T2, DRC2 (mouse) (UniProt Q8VHI7).
T2 sequence: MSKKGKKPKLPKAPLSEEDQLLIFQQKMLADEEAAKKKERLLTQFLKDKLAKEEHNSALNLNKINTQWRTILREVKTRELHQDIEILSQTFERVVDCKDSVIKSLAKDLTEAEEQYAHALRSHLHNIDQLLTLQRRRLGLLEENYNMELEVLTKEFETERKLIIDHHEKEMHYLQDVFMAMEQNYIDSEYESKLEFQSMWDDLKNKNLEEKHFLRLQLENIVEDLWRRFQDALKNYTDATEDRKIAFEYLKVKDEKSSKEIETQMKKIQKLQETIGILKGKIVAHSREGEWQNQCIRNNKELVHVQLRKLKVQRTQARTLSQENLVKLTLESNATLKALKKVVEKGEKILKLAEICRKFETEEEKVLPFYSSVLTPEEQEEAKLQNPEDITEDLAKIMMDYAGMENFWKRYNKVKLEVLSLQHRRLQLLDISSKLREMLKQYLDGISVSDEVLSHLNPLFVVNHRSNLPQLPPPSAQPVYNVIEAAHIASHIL
The description is as above.

The target of assay [3] is T3, DRC4 (Growth arrest-specific protein 8) (mouse (endogenous in testis)) (UniProt Q60779).
T3 sequence: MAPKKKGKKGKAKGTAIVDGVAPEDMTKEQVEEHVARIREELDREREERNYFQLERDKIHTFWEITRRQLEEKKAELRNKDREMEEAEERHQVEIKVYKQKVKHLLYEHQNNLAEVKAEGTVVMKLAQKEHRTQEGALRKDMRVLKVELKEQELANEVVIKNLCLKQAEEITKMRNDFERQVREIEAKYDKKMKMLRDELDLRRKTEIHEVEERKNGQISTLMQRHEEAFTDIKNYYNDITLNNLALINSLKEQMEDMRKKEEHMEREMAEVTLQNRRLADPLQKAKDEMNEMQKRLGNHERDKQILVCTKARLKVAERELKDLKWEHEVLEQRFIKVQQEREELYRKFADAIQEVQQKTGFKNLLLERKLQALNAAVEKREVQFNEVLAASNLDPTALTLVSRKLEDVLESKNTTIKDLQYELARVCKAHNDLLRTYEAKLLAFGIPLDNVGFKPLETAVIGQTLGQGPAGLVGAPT
In words: affinity purification with mass spectrometry; DRC4 immunoprecipitated from mouse testis with anti-DRC4 antibody (Pierce crosslink IP kit); WT against Drc4-/- testes; LC-MS/MS.

B1: A-kinase anchor protein 3 (AKAP3) (protein, UniProt O88987 1-864)
chain: MADRVDWLQSQSGVCKVGVYSPGDNQHQDWKMDTSTDPVRVLSWLRKDLEKSTAGFQDSRFKPGESSFVEEVAYPVDQRKGFCVDYYNTTNKGSPGRLHFEMSHKENPSQGLISHVGNGGSIDEVSFYANRLTNLVIAMARKEINEKIHGAENKCVHQSLYMGDEPTPHKSLSTVASELVNETVTACSKNISSDKAPGSGDRASGSSQAPGLRYTSTLKIKESTKEGKCPDDKPGTKKSFFYKEVFESRNAGDAKEGGRSLPGDQKLFRTSPDNRPDDFSNSISQGIMTYANSVVSDMMVSIMKTLKIQVKDTTIATILLKKVLMKHAKEVVSDLIDSFMKNLHGVTGSLMTDTDFVSAVKRSFFSHGSQKATDIMDAMLGKLYNVMFAKKFPENIRRARDKSESYSLISTKSRAGDPKLSNLNFAMKSESKLKENLFSTCKLEKEKTCAETLGEHIIKEGLHMWHKSQQKSPGLERAAKLGNAPQEVSFECPDPCEANPPHQPQPPENFANFMCDSDSWAKDLIVSALLLIQYHLAQGGKMDAQSFLEAAASTNFPTNKPPPPSPVVQDECKLKSPPHKICDQEQTEKKDLMSVIFNFIRNLLSETIFKSSRNCESNVHEQNTQEEEIHPCERPKTPCERPITPPAPKFCEDEEATGGALSGLTKMVANQLDNCMNGQMVEHLMDSVMKLCLIIAKSCDSPLSELGEEKCGDASRPNSAFPDNLYECLPVKGTGTAEALLQNAYLTIHNELRGLSGQPPEGCEIPKVIVSNHNLADTVQNKQLQAVLQWVAASELNVPILYFAGDDEGIQEKLLQLSATAVEKGRSVGEVLQSVLRYEKERQLDEAVGNVTRLQLLDWLMANL
For the molecule B1, the binding entry in assay [1] is reported as “no binding”; in assay [2], “no binding”; in assay [3] it was “binds”.
